For at least one entry, the source does not settle the construct or the ends of the probe. For some assays here: Negatives hold for the conditions tested. At least one verdict rests on a figure or table, not on a statement of the authors. For some assays here: Weaker means in comparison with the reference protein, sequence or condition of that experiment.
Tests used:
[1] = target: GST-SP1 (UniProt P08047); test: ELONA; details: recombinant protein, protein details: GST (N-terminal, pGEX2T), label: 5' biotin for ELONA, folded or branched DNA
[2] = target: GST tag (UniProt P08515); test: ELONA; details: label: 5' biotin for ELONA; folded or branched DNA

By UniProt entry, the sequences of proteins in these tests, tags left out. Where a name states a change or a piece, a line headed by the entry shows the natural chain unless it says otherwise.
UniProt P08047: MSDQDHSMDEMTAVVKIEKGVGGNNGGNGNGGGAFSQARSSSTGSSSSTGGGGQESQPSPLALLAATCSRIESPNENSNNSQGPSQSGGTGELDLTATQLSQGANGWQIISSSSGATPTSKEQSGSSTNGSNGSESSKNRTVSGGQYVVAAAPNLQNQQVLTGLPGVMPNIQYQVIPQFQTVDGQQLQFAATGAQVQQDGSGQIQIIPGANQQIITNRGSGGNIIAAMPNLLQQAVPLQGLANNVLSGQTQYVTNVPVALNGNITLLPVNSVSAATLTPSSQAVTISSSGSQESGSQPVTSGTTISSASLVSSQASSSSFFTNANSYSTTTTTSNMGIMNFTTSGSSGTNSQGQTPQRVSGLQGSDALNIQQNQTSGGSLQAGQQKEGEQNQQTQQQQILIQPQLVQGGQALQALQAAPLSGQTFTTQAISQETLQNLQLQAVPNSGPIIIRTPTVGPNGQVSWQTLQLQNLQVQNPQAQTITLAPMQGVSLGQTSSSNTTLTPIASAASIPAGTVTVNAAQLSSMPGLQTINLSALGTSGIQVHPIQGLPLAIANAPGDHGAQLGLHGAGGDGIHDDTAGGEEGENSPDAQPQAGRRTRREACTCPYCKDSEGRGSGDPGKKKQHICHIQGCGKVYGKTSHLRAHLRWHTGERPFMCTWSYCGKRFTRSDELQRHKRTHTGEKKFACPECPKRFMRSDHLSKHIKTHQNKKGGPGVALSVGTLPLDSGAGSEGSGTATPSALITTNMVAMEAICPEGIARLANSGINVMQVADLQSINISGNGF
UniProt P08515, whole entry: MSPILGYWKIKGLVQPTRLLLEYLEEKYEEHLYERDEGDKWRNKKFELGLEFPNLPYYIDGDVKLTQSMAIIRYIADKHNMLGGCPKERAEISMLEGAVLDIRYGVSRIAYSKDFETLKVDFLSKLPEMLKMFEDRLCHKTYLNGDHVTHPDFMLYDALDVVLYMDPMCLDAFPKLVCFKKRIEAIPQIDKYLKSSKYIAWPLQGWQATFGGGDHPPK

| Sequence | binding result ([1]; folded in 100 mM K+) | binding result ([1]; folded in 100 mM Li+) | binding result [2] |
| --- | --- | --- | --- |
| CGGGCGCGGGAGGAAGGGGGCGGGAGC [BCL-2 G4 unmethylated] | binds | binds more weakly |  |
| CGGGGCGGGGCGGGGGCGGGGGCG [HRAS2 G4 unmethylated] | binds | binds more weakly |  |
| GGCGAGGAGGGGCGTGGCCGGC [c-KIT G4 unmethylated] | binds | binds more weakly |  |
| GGGGCGGGCCGGGGGCGGGG [VEGF G4 unmethylated] | binds | binds more weakly | no binding |
| TCGGGTTGCGGGCGCAGGGCACGGGCG [HRAS1 G4 unmethylated] | binds | binds more weakly |  |
